Laboratory results taken from article PMC6393296.
The exact form of at least one protein or probe is not confirmed. A weaker result is weaker than the reference pair of the same experiment.

System: Mlh1 (WT, FLAG) + Pms1 (WT)
Test: filter binding
Settings: 1 mM ATP, 2 mM Mg2+, reduced vs no ATP, Filter binding: 20 mM Tris-HCl pH 7.5, 20 mM NaCl (25 mM in legends), 0.01 mM EDTA, 2 mM MgCl2, 40 ug/ml BSA, 0.1 mM DTT, 15 nM DNA, 30 C, 10 min, recombinant protein, protein details: FLAG inserted at position 499, label: 5'-32P on AO3142

Sequence: GGGTCAACGTGGGCAAAGATGTCCTAGCAAGTCAGAATTCGGTAGCGTG (double strand) [49-bp homoduplex AO3142/AO3144]
- binding result: binds more weakly
